The values below come from publication PMC12339706.

Amino acid sequences for entries named in this document (tags omitted).
UniProt Q16643: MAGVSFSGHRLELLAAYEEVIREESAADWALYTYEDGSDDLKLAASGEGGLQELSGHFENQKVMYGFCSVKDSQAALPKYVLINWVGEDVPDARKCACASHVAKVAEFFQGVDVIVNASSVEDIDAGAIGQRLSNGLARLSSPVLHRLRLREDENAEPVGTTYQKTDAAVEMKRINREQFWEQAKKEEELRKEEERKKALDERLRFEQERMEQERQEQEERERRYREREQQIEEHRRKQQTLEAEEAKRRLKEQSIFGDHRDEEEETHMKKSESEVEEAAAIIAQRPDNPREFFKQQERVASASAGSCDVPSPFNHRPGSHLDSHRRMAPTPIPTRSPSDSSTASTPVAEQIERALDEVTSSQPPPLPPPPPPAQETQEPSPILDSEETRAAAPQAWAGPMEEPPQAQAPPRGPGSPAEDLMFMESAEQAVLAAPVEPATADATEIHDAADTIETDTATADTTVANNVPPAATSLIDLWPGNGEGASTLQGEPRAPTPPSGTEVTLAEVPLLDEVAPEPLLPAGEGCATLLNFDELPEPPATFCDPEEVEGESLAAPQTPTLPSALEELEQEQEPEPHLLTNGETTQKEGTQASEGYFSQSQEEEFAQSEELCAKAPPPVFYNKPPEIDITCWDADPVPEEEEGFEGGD

The target in this experiment is T1, Flag-TRIM59 (UniProt Q8IWR1).
T1 sequence: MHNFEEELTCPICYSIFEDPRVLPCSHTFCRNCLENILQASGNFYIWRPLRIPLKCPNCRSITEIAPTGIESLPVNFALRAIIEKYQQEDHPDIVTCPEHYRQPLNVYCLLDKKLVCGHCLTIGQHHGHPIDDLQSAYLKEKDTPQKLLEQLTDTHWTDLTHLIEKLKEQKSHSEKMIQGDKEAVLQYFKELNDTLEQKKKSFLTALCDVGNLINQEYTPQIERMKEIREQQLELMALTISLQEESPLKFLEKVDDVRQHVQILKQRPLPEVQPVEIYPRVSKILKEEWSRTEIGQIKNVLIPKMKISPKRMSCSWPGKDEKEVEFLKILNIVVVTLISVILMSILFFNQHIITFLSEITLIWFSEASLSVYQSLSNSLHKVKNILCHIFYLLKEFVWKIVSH
The experiment can be described thus: affinity purification with mass spectrometry; HEK-293T cells transfected with Flag-TRIM59 or empty vector, MG132 20 uM for 6 h; lysate in IP lysis buffer, anti-Flag antibody at 4 °C overnight, protein A/G magnetic beads, SDS-PAGE, Coomassie, LC/MS.

Results are given in words; binding and its absence hold for the method and conditions named. Binding seen in cells or lysates may run through a third protein. Here binding means that the protein was enriched with, or labelled near, the bait; the list need not be complete. Tags and fused reporters may be left off the sequences shown.

Turning to DBN1 (from UniProt Q16643 1-649), the binding result is recorded as “binds”.

B1: ACAT1 (endogenous, found by mass spectrometry) (enzyme, UniProt P24752 34-427)
chain: VSKPTLKEVVIVSATRTPIGSFLGSLSLLPATKLGSIAIQGAIEKAGIPKEEVKEAYMGNVLQGGEGQAPTRQAVLGAGLPISTPCTTINKVCASGMKAIMMASQSLMCGHQDVMVAGGMESMSNVPYVMNRGSTPYGGVKLEDLIVKDGLTDVYNKIHMGSCAENTAKKLNIARNEQDAYAINSYTRSKAAWEAGKFGNEVIPVTVTVKGQPDVVVKEDEEYKRVDFSKVPKLKTVFQKENGTVTAANASTLNDGAAALVLMTADAAKRLNVTPLARIVAFADAAVEPIDFPIAPVYAASMVLKDVGLKKEDIAMWEVNEAFSLVVLANIKMLEIDPQKVNINGGAVSLGHPIGMSGARIVGHLTHALKQGEYGLASICNGGGGASAMLIQKL
Take B1: the binding result was “binds”.

B2: HEL-S-87p (protein, UniProt P04075 1-364)
chain: MPYQYPALTPEQKKELSDIAHRIVAPGKGILAADESTGSIAKRLQSIGTENTEENRRFYRQLLLTADDRVNPCIGGVILFHETLYQKADDGRPFPQVIKSKGGVVGIKVDKGVVPLAGTNGETTTQGLDGLSERCAQYKKDGADFAKWRCVLKIGEHTPSALAIMENANVLARYASICQQNGIVPIVEPEILPDGDHDLKRCQYVTEKVLAAVYKALSDHHIYLEGTLLKPNMVTPGHACTQKFSHEEIAMATVTALRRTVPPAVTGITFLSGGQSEEEASINLNAINKCPLLKPWALTFSYGRALQASALKAWGGKKENLKAAQEEYVKRALANSLACQGKYTPSGQAGAAASESLFVSNHAY
For B2, the binding result is on record as “binds”.
